Paper doi:10.1101/2022.03.08.483320
These are yes or no findings as the source states them, for the method shown. In cells and extracts the contact can be indirect. Here binding means that the protein was enriched with, or labelled near, the bait; the list need not be complete.

By UniProt entry, the sequences of proteins in these tests, tags left out.
UniProt P52701: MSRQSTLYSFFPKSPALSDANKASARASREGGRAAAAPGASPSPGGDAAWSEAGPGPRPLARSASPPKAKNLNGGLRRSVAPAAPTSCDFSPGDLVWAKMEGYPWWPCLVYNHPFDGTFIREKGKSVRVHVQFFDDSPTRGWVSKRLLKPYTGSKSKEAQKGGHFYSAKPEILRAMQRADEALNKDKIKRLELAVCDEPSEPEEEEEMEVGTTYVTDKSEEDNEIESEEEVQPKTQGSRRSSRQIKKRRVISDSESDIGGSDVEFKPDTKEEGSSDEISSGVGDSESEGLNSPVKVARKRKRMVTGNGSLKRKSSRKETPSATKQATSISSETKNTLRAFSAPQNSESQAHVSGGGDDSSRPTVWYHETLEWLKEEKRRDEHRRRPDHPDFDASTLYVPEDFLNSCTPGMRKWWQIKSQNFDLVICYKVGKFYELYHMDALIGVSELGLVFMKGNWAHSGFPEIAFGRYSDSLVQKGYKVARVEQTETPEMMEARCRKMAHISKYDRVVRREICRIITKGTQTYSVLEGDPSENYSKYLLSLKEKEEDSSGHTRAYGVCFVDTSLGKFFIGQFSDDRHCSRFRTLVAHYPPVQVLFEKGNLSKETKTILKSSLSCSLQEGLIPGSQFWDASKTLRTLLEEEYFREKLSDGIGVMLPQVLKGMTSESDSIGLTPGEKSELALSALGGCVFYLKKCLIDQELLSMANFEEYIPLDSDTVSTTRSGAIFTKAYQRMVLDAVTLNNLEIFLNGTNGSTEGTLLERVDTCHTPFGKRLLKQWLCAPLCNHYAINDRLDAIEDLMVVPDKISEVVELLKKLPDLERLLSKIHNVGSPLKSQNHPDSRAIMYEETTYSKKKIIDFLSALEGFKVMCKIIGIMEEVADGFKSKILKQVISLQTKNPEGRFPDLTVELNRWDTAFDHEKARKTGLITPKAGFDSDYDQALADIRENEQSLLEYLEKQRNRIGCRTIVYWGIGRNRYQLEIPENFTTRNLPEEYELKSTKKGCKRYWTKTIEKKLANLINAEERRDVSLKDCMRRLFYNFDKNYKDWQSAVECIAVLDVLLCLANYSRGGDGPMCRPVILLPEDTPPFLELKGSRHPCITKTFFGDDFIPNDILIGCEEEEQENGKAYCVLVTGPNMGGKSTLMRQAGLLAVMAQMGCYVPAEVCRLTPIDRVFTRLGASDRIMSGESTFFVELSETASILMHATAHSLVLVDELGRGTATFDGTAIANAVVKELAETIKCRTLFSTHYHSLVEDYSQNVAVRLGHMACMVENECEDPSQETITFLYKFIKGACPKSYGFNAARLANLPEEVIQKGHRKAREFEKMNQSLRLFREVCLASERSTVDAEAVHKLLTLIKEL
UniProt Q92878: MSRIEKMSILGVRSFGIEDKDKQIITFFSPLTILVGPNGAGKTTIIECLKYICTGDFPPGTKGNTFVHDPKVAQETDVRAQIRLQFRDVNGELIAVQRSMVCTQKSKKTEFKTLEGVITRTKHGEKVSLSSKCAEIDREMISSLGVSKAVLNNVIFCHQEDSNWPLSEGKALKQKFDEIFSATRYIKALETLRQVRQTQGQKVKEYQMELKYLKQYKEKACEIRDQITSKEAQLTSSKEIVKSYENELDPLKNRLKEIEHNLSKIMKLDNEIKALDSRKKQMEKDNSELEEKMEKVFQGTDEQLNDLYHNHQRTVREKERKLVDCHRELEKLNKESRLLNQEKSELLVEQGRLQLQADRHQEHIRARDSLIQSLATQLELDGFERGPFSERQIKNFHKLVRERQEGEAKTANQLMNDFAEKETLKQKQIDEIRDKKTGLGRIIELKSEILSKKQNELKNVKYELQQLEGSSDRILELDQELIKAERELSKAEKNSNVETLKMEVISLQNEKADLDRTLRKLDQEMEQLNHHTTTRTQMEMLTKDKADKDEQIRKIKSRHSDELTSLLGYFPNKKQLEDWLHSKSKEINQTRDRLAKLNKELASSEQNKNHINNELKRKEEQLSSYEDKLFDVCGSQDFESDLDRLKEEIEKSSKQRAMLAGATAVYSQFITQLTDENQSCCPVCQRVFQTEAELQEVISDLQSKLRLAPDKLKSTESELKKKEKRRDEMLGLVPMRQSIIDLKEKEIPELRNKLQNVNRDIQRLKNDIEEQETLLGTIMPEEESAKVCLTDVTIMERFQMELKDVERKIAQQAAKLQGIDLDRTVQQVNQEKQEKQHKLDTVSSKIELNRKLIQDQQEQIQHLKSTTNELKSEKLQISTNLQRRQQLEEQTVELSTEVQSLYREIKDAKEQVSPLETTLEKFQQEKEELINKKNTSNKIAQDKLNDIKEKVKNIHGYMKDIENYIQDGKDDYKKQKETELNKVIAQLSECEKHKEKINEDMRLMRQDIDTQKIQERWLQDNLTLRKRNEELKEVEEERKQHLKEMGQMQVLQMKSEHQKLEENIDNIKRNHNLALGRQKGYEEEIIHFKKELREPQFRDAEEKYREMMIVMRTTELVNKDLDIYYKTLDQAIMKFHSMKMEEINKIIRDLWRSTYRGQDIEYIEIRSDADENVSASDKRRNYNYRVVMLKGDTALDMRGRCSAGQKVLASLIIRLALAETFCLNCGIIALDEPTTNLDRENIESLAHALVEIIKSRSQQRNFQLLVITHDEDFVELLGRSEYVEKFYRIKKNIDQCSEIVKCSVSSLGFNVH
UniProt Q12888: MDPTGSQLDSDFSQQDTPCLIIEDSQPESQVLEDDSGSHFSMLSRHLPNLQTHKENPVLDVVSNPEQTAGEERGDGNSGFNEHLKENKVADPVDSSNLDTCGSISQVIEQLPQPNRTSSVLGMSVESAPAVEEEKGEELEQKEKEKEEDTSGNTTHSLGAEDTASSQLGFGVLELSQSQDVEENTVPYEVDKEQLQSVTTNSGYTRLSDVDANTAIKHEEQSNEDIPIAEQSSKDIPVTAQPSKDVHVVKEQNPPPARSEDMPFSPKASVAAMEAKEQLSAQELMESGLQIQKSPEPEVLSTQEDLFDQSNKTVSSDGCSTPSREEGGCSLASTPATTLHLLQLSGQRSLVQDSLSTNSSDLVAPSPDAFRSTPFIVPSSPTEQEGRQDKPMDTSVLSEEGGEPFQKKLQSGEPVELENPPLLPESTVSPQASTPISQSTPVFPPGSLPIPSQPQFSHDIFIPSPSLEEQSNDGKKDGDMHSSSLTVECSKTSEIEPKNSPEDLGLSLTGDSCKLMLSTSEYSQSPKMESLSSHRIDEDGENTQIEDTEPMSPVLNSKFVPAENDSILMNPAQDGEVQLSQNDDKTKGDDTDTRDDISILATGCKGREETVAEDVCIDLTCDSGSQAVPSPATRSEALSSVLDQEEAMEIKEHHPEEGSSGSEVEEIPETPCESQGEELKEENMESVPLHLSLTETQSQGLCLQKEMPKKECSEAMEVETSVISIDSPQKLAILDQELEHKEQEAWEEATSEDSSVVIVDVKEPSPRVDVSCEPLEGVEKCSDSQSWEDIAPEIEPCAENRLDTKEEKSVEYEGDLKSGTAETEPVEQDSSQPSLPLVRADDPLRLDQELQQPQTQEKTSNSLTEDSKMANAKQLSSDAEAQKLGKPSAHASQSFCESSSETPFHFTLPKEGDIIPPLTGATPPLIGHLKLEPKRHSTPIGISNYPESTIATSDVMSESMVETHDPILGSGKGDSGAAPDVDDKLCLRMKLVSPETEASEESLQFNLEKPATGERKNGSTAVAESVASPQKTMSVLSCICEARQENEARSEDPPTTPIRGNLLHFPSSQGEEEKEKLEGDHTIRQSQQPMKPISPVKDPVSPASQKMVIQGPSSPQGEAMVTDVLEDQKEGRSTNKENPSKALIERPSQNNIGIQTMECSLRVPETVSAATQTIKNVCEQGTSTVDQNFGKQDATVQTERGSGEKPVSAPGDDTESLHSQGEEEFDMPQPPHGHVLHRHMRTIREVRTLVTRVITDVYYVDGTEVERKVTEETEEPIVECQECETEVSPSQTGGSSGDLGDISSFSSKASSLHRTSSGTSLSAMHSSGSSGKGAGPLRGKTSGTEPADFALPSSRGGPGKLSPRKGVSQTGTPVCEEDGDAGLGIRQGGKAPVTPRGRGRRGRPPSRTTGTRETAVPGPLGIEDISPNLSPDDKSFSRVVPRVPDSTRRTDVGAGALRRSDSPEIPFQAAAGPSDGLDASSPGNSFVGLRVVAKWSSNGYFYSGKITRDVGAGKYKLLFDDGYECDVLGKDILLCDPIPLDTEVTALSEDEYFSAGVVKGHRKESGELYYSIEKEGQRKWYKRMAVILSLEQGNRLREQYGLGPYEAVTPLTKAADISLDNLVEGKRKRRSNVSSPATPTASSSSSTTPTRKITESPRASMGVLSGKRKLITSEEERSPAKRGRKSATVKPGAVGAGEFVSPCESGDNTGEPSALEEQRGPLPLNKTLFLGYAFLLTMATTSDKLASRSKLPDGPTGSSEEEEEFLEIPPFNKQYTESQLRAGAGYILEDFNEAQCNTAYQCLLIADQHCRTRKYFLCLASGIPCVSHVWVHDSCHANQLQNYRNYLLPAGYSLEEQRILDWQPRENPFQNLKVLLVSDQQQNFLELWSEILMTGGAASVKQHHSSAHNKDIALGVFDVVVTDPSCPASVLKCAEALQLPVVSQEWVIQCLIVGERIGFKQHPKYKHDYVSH

Biological target: T1, TRIM29 (immunoprecipitated from the nuclear fraction of RWPE-1) (human (endogenous in RWPE-1)) (UniProt Q14134)
T1 sequence: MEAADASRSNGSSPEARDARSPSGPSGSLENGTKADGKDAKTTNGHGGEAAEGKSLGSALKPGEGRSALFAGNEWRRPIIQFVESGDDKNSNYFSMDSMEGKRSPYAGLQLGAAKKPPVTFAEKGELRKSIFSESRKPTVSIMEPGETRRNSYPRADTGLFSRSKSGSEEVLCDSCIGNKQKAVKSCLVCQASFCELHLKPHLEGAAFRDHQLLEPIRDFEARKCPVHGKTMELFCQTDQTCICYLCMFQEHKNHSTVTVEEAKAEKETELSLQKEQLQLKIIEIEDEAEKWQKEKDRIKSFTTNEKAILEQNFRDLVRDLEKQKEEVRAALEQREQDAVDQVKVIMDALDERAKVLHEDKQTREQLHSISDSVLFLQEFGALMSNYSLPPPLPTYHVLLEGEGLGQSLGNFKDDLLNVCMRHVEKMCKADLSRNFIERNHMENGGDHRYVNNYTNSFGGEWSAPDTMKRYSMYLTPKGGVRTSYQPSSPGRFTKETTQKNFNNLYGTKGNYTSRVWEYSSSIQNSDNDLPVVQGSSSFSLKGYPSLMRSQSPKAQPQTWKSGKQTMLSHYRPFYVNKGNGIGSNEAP
Assay: affinity purification with mass spectrometry

binding, binds:
MSH6 (from UniProt P52701 1-1360)
RAD50 (from UniProt Q92878 1-1312)
TP53BP1 (from UniProt Q12888 1-1972)
